According to publication PMC10117100:

Molecular target: T1, ΔNp73α-TAP (human) (UniProt O15350)
T1 sequence: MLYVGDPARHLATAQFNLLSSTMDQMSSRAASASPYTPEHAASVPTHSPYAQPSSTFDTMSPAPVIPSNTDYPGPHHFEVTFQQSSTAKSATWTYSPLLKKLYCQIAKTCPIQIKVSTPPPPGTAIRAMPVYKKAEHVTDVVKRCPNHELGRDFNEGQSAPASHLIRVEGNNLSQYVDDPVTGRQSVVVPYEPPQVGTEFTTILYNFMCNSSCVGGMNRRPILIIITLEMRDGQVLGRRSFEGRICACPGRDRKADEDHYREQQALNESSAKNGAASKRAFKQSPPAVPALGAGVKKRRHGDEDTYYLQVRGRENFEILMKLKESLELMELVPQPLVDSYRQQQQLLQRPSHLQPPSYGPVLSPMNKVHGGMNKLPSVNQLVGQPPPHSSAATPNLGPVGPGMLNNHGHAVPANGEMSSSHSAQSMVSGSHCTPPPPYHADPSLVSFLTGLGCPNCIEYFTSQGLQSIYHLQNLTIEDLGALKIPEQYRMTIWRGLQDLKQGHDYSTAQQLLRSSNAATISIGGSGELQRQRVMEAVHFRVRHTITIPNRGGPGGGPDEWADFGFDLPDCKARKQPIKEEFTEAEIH
Assay: affinity purification with mass spectrometry; tandem affinity purification (IgG Sepharose, TEV cleavage, calmodulin Sepharose) of ΔNp73α-TAP from the nuclear soluble fraction of 38HK; LC-MS of elution fraction 2; TAP tag alone as control; hits enriched more than 10-fold

binding: binds
B1: endogenous p63 (38HK) (protein, UniProt Q9H3D4 1-680)
chain: MNFETSRCATLQYCPDPYIQRFVETPAHFSWKESYYRSTMSQSTQTNEFLSPEVFQHIWDFLEQPICSVQPIDLNFVDEPSEDGATNKIEISMDCIRMQDSDLSDPMWPQYTNLGLLNSMDQQIQNGSSSTSPYNTDHAQNSVTAPSPYAQPSSTFDALSPSPAIPSNTDYPGPHSFDVSFQQSSTAKSATWTYSTELKKLYCQIAKTCPIQIKVMTPPPQGAVIRAMPVYKKAEHVTEVVKRCPNHELSREFNEGQIAPPSHLIRVEGNSHAQYVEDPITGRQSVLVPYEPPQVGTEFTTVLYNFMCNSSCVGGMNRRPILIIVTLETRDGQVLGRRCFEARICACPGRDRKADEDSIRKQQVSDSTKNGDGTKRPFRQNTHGIQMTSIKKRRSPDDELLYLPVRGRETYEMLLKIKESLELMQYLPQHTIETYRQQQQQQHQHLLQKQTSIQSPSSYGNSSPPLNKMNSMNKLPSVSQLINPQQRNALTPTTIPDGMGANIPMMGTHMPMAGDMNGLSPTQALPPPLSMPSTSHCTPPPPYPTDCSIVSFLARLGCSSCLDYFTTQGLTTIYQIEHYSMDDLASLKIPEQFRHAIWKGILDHRQLHEFSSPSHLLRTPSSASTVSVGSSETRGERVIDAVRFTLRQTISFPPRDEWNDFNFDMDARRNKQQRIKEEGE

Results are given in words; binding and its absence hold for the method and conditions named. In cells and extracts the contact can be indirect. A yes stands for co-enrichment or nearness to the bait. Other partners may have been found.
